Data: article PMC5171702
These are yes or no findings as the source states them, for the method shown. Binding seen in cells or lysates may run through a third protein. Some entries that bind do so weakly or less than the wild type.

Sequences of proteins named here, by UniProt entry; tags and fusion partners are left off. A change or cut given only in a name is not applied to a line headed by its entry.
UniProt P61586: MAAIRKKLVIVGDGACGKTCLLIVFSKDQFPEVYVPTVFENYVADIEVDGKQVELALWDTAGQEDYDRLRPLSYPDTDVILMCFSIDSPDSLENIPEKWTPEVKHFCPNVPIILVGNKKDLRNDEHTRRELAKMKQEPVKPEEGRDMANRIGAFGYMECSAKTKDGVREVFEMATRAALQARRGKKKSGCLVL

Target: agarose-conjugated nucleotide-free RhoA mutant (RhoA^G17A) (UniProt P61586)
Assay: pull-down; RhoA^G17A agarose beads (40 ul bed volume) rotated 30 min with 1 mg lysate of hearts or cardiac cells; RhoGEF buffer: 20 mM HEPES pH 7.5, 150 mM NaCl, 1% Triton X-100, 5 mM MgCl2, 1 mM DTT; mouse hearts sham or 1 week after TAC, TRPC3+/+ or TRPC3-/-; NRCMs with or without mechanical stretch, TRPC3 or Nox2 siRNA, DPI, taxol, okadaic acid; rat fibroblasts with or without TGF-beta2 and TRPC3 siRNA; read out as GEF-H1 activation; only the target purified

B1: GEF-H1 (microtubule-associated Rho guanine nucleotide exchange factor), mouse (protein, UniProt Q60875 1-985)
chain: MSRIESLTRARIDRSKEQATKTREKEKMKEAKDARYTNGHLFTTISVSGMTMCYACNKSITAKEALICPTCNVTIHNRCKDTLANCTKVKQKQQKAALLRNNTALQSVSLRSKTTTRERPTSAIYPSDSFRQSLLGSRRGLSSLSLAKSVSTTNIAGHFNDESPLGLRQILSQSTDSLNMRNRTLSVESLIDEGVEVFYNELMSDFEMDEKDFEADSWSLAVDSSFLQQHKKEVMKKQDVIYELIQTELHHVRTLKIMTRLFRTGMLEELQMEPEVVQGLFPCVDELSDIHTRFLNQLLERRRQALCPGSTRNFVIHRLGDLLISQFSGSNAEQMRKTYSEFCSRHTKALKLYKELYARDKRFQQFIRKMTRSAVLKRHGVQECILLVTQRITKYPVLINRILQNSHGVEEEYQDLASALGLVKELLSNVDQDVHELEKEARLQEIYNRMDPRAQTPVPGKGPFGRDELLRRKLIHEGCLLWKTATGRFKDVLLLLMTDVLVFLQEKDQKYIFTSLDKPSVVSLQNLIVRDIANQAKGMFLISSGPPEMYEVHAASRDDRTTWIRVIQQSVRLCPSREDFPLIETEDKAYLRRIKTKLQQKNQALVELLQKNVELFAEMVHFQALKAGFVGMPPPALPRGLFRLESFESLRGERLLKDALREVEGLKDLLLGPCVDLPMTSREPALPLDSDSGSCPGVTANGEARTFNGSIELCRADSDSSQKDRNGNQLRSPQEEVLQPLINLYGLLHGLQAVVVQQERLMEALFPEGPERWEKLSRANSRDGEAGRAAVASVTPEKQATELALLQRQHTLLQEELRRCQRLGEERATEAGSLEARLRESEQARALLEREAEEIRRQLAALGQNEPLPAEAPWARRPLDPRRRSLPAGDALYLSFNPPQPSRGHDRLDLPVTVRSLHRPFDDREAQELGSPEDRLQDSSDPDTGSEEEVSSRLSPPHSPRDFTRMQDIPEETESRDGEPTASES
B1 was tested, and the binding was “binds”.

B2: GEF-H1 (microtubule-associated Rho guanine nucleotide exchange factor), rat (protein, UniProt Q5FVC2 1-985)
chain: MSRIESLTRARIDRSKEQATKTREKEKMKEAKDARYTNGHLFTTISVSGMTMCYACNKSITAKEALICPTCNVTIHNRCKDTLANCTKVKQKQQKAALLRNNTALQSVSLRSKTTTRERPTSAIYPSDSFRQSLLGSRRGLSSLSLAKSVSTTNIAGHFNDESPLGLRQILSQSTDSLNMRNRTLSVESLIDEGVEVFYNELMSDFEMDEKDFEADSWSLAVDSSFLQQHKKEVMKKQDVIYELIQTELHHVRTLKIMTRLFRTGMLEELQMEPEVVQGLFPCVDELSDIHTRFLSQLLERRRQALCPGSTRNFVIHRLGDLLISQFSGSNAEQMRKTYSEFCSRHTKALKLYKELYARDKRFQQFIRKMTRSAVLKRHGVQECILLVTQRITKYPVLINRILQNSHGIEEEYQDLAAALGLVKELLSNVDQDVHELEKEARLQEIYNRMDPRAQTPVPGKGPFGRDELLRRKLIHDGCLLWKTATGRFKDVLLLLMTDVLVFLQEKDQKYIFTSLDKPSVVSLQNLIVRDIANQAKGMFLISSGPPEMYEVHAASRDDRTTWIRVIQQSVRLCPSREDFPLIETEDKAYLRRIKTKLQQKNQALVELLQMNVELFAEMVHFQALKAGFIGMPPPTLPRGLFRLESFESLRGERLLKDALREVEGLKDLLLGPCVDLPLTAREPALPVEADSGSCPGVTANGEARTFNGSIELCRADSDSSQKDRNGNQLRSPQEEALQPLVNLYGLLQGLQAVVVQQERLMEALFPEGPERWEKLSRANSRDGEAGRAAVASVTPEKQATELALLQRQHSLLQEELRRCQRLGEERATEAGSLEARLRESEQARALLEREAEEIRRQLAALGQNEPLPAEAPWARRPLDPRRRSLPAGDALYLSFNPPQPSRGHDRLDLPVTVRSLHRPFDDREAQELGSPEDRLQDSSDPDTCSEEEVSSRLSPPHSPRDFTRMQDIPEETESRDGEPTASES
With B2 the binding was “binds”.
